{
  "source": "patent US7354588B1",
  "about": "“Functional derivatives of ICAM-1 with altered ability to bind LFA-1 or HRV” (Dana Farber Cancer Institute, priority 1987, dated 2008)",
  "test_system": "ICAM-1 expression on human umbilical vein endothelial cells (HUVEC)",
  "experiment": "Radioimmune assay of ICAM-1 expression with ^125I RR1/1, HUVEC",
  "type": "cell-based",
  "details": "recombinant cytokines",
  "procedure": "In order to measure ICAM-1 expression, a radioimmune assay was developed. In this assay, purified RR1/1 was iodinated using iodogen to a specific activity of 10 μCi/μg. Endothelial cells were grown in 96 well plates and treated as described for each experiment. The plates were cooled at 4° C. by placing in a cold room for 0.5-1 hr, not immediately on ice. The monolayers were washed 3× with cold complete media and then incubated 30 m at 4° C. with ^125I RR1/1. The monolayers were then washed 3× with complete media. The bound 125, was released using 0.1 N NaOH and counted. The specific activity of the ^125I RR1/1 was adjusted using unlabeled RR1/1 to obtain a linear signal over the range of antigen densities encountered in this study. Non-specific binding was determined in the presence of a thousand fold excess of unlabeled RR1/1 and was subtracted from total binding to yield the specific binding.\nUpregulation of ICAM-1 expression on HVEC and HSVEC-HUVEC or HSVEC were seeded into 96 well plates at 1:3 from a confluent monolayer and allowed to grow to confluence. Cells were then treated with the indicated materials or media for 16 hr and the RIA done as in methods. All points were done in quadruplicate.",
  "note": "Some results were stated once for a whole list of compounds, not compound by compound.",
  "data": [
    {"substance": "rIL-1 alpha: recombinant IL-1 alpha", "values": [
      {"measurement": "increase of ICAM-1 expression on umbilical vein endothelial cell", "result": "10-20 fold"}
    ]}
  ]
}
